In paper PMC10570038:
No constants are given. Whether binding was seen depends on the method and setting. Binding seen in cells or lysates may run through a third protein. Some results given as binding are weak or reduced against the parent protein; the word gives no strength. Values belong to the binder of their own block, whether it stands above or below them.

Experiments:
[1] = target: recombinant untagged full-length rat RBPMS-A (rat); experiment: co-sedimentation; Benzonase-treated HeLa NE with buffer, ΔC20 or FL RBPMS (1 μM StrepII-His6-RBPMS-A or tag-free RBPMS-A plus 1 μM His6-RBPMS-A-Alexa 647); 10-60% glycerol, 0-0.15% glutaraldehyde gradient, 100 mM KCl, pH 7.9; SW40 Ti 32 000 rpm 13 h 4°C; fractions dot blotted; only the target purified
[2] = target: StrepII-His6-RBPMS-A (full length) (rat); experiment: pull-down; as the StrepII pull-down with immunoblot, but HeLa NE pretreated with 5 U/ml Benzonase at 30°C for 15 min and clarified before RBPMS was added; only the target purified
[3] = target: StrepII-His6-RBPMS-A (full length) (rat); experiment: pull-down; 2 μM StrepII-His6-RBPMS variant in 60% HeLa NE, 2.2 mM MgCl2, 2.6% PVA, 30°C 15 min; MagStrep 'type3' XT beads; six washes with 150 mM KCl buffer; elution with biotin; immunoblot; only the target purified
[4] = target: StrepII-His6-RBPMS-A-K100E (rat); experiment: as above

binding [1]: no binding
B1: hnRNPM (protein, UniProt P52272 1-730)
chain: MAAGVEAAAEVAATEIKMEEESGAPGVPSGNGAPGPKGEGERPAQNEKRKEKNIKRGGNRFEPYANPTKRYRAFITNIPFDVKWQSLKDLVKEKVGEVTYVELLMDAEGKSRGCAVVEFKMEESMKKAAEVLNKHSLSGRPLKVKEDPDGEHARRAMQKVMATTGGMGMGPGGPGMITIPPSILNNPNIPNEIIHALQAGRLGSTVFVANLDYKVGWKKLKEVFSMAGVVVRADILEDKDGKSRGIGTVTFEQSIEAVQAISMFNGQLLFDRPMHVKMDERALPKGDFFPPERPQQLPHGLGGIGMGLGPGGQPIDANHLNKGIGMGNIGPAGMGMEGIGFGINKMGGMEGPFGGGMENMGRFGSGMNMGRINEILSNALKRGEIIAKQGGGGGGGSVPGIERMGPGIDRLGGAGMERMGAGLGHGMDRVGSEIERMGLVMDRMGSVERMGSGIERMGPLGLDHMASSIERMGQTMERIGSGVERMGAGMGFGLERMAAPIDRVGQTIERMGSGVERMGPAIERMGLSMERMVPAGMGAGLERMGPVMDRMATGLERMGANNLERMGLERMGANSLERMGLERMGANSLERMGPAMGPALGAGIERMGLAMGGGGGASFDRAIEMERGNFGGSFAGSFGGAGGHAPGVARKACQIFVRNLPFDFTWKMLKDKFNECGHVLYADIKMENGKSKGCGVVKFESPEVAERACRMMNGMKLSGREIDVRIDRNA

binding [3]: binds
B4: RBM14 (protein, UniProt Q96PK6 1-669)
chain: MKIFVGNVDGADTTPEELAALFAPYGTVMSCAVMKQFAFVHMRENAGALRAIEALHGHELRPGRALVVEMSRPRPLNTWKIFVGNVSAACTSQELRSLFERRGRVIECDVVKDYAFVHMEKEADAKAAIAQLNGKEVKGKRINVELSTKGQKKGPGLAVQSGDKTKKPGAGDTAFPGTGGFSATFDYQQAFGNSTGGFDGQARQPTPPFFGRDRSPLRRSPPRASYVAPLTAQPATYRAQPSVSLGAAYRAQPSASLGVGYRTQPMTAQAASYRAQPSVSLGAPYRGQLASPSSQSAAASSLGPYGGAQPSASALSSYGGQAAAASSLNSYGAQGSSLASYGNQPSSYGAQAASSYGVRAAASSYNTQGAASSLGSYGAQAASYGAQSAASSLAYGAQAASYNAQPSASYNAQSAPYAAQQAASYSSQPAAYVAQPATAAAYASQPAAYAAQATTPMAGSYGAQPVVQTQLNSYGAQASMGLSGSYGAQSAAAATGSYGAAAAYGAQPSATLAAPYRTQSSASLAASYAAQQHPQAAASYRGQPGNAYDGAGQPSAAYLSMSQGAVANANSTPPPYERTRLSPPRASYDDPYKKAVAMSKRYGSDRRLAELSDYRRLSESQLSFRRSPTKSSLDYRRLPDAHSDYARYSGSYNDYLRAAQMHSGYQRRM

The remaining lines, values behind:

B2: RBFOX2 (protein, UniProt O43251 1-390)
chain: MQNEPLTPGYHGFPARDSQGNQEPTTTPDAMVQPFTTIPFPPPPQNGIPTEYGVPHTQDYAGQTGEHNLTLYGSTQAHGEQSSNSPSTQNGSLTTEGGAQTDGQQSQTQSSENSESKSTPKRLHVSNIPFRFRDPDLRQMFGQFGKILDVEIIFNERGSKGFGFVTFENSADADRAREKLHGTVVEGRKIEVNNATARVMTNKKMVTPYANGWKLSPVVGAVYGPELYAASSFQADVSLGNDAAVPLSGRGGINTYIPLISLPLVPGFPYPTAATTAAAFRGAHLRGRGRTVYGAVRAVPPTAIPAYPGVVYQDGFYGADLYGGYAAYRYAQPATATAATAAAAAAAAYSDGYGRVYTADPYHALAPAASYGVGAVASLYRGGYSRFAPY
binding [2]: binds | binding [3]: binds | binding [4]: binds | binding [1]: binds

B3: ESRP2 (protein, UniProt Q9H6T0 1-727)
chain: MTPPPPPPPPPGPDPAADPAADPCPWPGSLVVLFGATAGALGRDLGSDETDLILLVWQVVEPRSRQVGTLHKSLVRAEAAALSTQCREASGLSADSLARAEPLDKVLQQFSQLVNGDVALLGGGPYMLCTDGQQLLRQVLHPEASRKNLVLPDMFFSFYDLRREFHMQHPSTCPARDLTVATMAQGLGLETDATEDDFGVWEVKTMVAVILHLLKEPSSQLFSKPEVIKQKYETGPCSDSTVPCPYSSKADVVDSETVVRARGLPWQSSDQDVARFFKGLNVARGGVALCLNAQGRRNGEALIRFVDSEQRDLALQRHKHHMGVRYIEVYKATGEEFVKIAGGTSLEVARFLSREDQVILRLRGLPFSAGPTDVLGFLGPECPVTGGTEGLLFVRHPDGRPTGDAFALFACEELAQAALRRHKGMLGKRYIELFRSTAAEVQQVLNRYASGPLLPTLTAPLLPIPFPLAPGTGRDCVRLRGLPYTATIEDILSFLGEAAADIRPHGVHMVLNQQGRPSGDAFIQMTSAERALAAAQRCHKKVMKERYVEVVPCSTEEMSRVLMGGTLGRSGMSPPPCKLPCLSPPTYTTFQATPTLIPTETAALYPSSALLPAARVPAAPTPVAYYPGPATQLYLNYTAYYPSPPVSPTTVGYLTTPTAALASAPTSVLSQSGALVRMQGVPYTAGMKDLLSVFQAYQLPADDYTSLMPVGDPPRTVLQAPKEWVCL
binding [3]: binds
